The supplement of paper PMC8007513
The other results are listed elsewhere or left out. Many values rest on one well or one pass, so single values are uncertain.

Test system: Saccharomyces cerevisiae BY4743
Test: growth (OD600) relative to untreated control; higher = less growth inhibition
Details: compound concentration: 133 uM; 20 h
Description: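 NMCCC compounds (133 uM, no IPBC) tested alone against Saccharomyces cerevisiae BY4743 in YPD, 96-well plates, starting OD600 ~0.1. Growth was read as OD600 at 20 h and expressed as % of the untreated control. Single pass.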

Row | Compound | growth [%]
1 | COc1ccc(-c2cnn3c(C(F)(F)F)cc(C(F)(F)F)nc23)cc1OC | 102
2 | CCc1ccc(S(=O)(=O)N(CCCN2CCCC2=O)CC(=O)N2CCNCC2)cc1 | 108
3 | Cc1ccc(/C=C/c2nnc(-c3cccs3)o2)cc1 | 75.6
4 | Cc1oc(-c2ccccc2)nc1COC(=O)c1ccc(S(=O)(=O)C(F)F)cc1 | 75.3
5 | COc1cc(OC)c(NC(=O)CCNS(=O)(=O)c2ccc3c(c2)CC(C)N3C(C)=O)cc1Cl (stereo unspecified) | 106
6 | Cc1c(C)n(C(=O)CSc2nc[nH]n2)c2ccccc12 | 95.8
7 | COc1cc(NC(=O)NCc2c(C)nn(C)c2C)cc(OC)c1OC | 96.4
8 | CC(C)CCNC(=O)c1cnn2c3c(cnc12)CCCC3 | 113
9 | CC(CCc1ccccc1)NC(=O)N(C)Cc1nc(O)c2sccc2n1 (stereo unspecified) | 93.1
10 | CCC1=CC=C(C=C1)C2=N[NH]C(=N2)SC\C3=C\C(=O)\C(=C/O3)O | 92.2
11 | CC(Sc1nnc(NC2CC2)s1)C(=O)N(C)C1(C#N)CCCCC1 (stereo unspecified) | 89
12 | CC(=O)N1CCSc2ccc(S(=O)(=O)Nc3ccc(OC(F)(F)F)cc3)cc21 | 119
13 | CCCC/1=C/C(=O)N/2\N=C(/SC2=N1)N(C)CC(=O)NCC3=CC(=CC=C3OC)Br | 107
14 | CC(C)n1nnnc1SCc1nc(-c2ccccc2Cl)no1 | 94.4
15 | O=c1ccc(-c2ccccc2F)nn1C/C=C/c1ccccc1 | 108
16 | CN(c1ccccc1)S(=O)(=O)c1ccccc1C(=O)OCC(=O)c1ccc(Cl)s1 | 102

Some of these compounds in order of number of heavy atoms, low to high.
Row | Compound | growth [%]
3 | Cc1ccc(/C=C/c2nnc(-c3cccs3)o2)cc1 | 75.6
11 | CC(Sc1nnc(NC2CC2)s1)C(=O)N(C)C1(C#N)CCCCC1 (stereo unspecified) | 89
2 | CCc1ccc(S(=O)(=O)N(CCCN2CCCC2=O)CC(=O)N2CCNCC2)cc1 | 108
